No constants are given. Whether binding was seen depends on the method and setting. In cells and extracts the contact can be indirect. Here binding means that the protein was enriched with, or labelled near, the bait; the list need not be complete.

Sequences of proteins named here, by UniProt entry; tags and fusion partners are left off.
UniProt Q14258: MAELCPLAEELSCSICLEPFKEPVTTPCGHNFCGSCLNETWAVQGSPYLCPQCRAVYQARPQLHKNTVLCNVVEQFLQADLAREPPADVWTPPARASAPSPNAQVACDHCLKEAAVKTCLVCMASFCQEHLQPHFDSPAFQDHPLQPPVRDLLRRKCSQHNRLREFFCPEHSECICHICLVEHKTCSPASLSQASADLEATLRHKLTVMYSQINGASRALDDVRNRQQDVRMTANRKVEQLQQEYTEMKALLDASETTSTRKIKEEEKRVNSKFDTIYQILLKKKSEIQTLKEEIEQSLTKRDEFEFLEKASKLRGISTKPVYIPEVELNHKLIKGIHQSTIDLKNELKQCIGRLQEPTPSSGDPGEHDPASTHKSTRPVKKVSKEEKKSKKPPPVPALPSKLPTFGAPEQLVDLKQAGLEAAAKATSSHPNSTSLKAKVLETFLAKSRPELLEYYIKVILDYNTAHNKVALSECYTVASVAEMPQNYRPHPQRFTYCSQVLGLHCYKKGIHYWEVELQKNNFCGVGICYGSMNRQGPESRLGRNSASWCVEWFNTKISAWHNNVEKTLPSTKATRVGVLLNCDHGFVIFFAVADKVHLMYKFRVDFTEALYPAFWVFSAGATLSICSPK
UniProt Q93009: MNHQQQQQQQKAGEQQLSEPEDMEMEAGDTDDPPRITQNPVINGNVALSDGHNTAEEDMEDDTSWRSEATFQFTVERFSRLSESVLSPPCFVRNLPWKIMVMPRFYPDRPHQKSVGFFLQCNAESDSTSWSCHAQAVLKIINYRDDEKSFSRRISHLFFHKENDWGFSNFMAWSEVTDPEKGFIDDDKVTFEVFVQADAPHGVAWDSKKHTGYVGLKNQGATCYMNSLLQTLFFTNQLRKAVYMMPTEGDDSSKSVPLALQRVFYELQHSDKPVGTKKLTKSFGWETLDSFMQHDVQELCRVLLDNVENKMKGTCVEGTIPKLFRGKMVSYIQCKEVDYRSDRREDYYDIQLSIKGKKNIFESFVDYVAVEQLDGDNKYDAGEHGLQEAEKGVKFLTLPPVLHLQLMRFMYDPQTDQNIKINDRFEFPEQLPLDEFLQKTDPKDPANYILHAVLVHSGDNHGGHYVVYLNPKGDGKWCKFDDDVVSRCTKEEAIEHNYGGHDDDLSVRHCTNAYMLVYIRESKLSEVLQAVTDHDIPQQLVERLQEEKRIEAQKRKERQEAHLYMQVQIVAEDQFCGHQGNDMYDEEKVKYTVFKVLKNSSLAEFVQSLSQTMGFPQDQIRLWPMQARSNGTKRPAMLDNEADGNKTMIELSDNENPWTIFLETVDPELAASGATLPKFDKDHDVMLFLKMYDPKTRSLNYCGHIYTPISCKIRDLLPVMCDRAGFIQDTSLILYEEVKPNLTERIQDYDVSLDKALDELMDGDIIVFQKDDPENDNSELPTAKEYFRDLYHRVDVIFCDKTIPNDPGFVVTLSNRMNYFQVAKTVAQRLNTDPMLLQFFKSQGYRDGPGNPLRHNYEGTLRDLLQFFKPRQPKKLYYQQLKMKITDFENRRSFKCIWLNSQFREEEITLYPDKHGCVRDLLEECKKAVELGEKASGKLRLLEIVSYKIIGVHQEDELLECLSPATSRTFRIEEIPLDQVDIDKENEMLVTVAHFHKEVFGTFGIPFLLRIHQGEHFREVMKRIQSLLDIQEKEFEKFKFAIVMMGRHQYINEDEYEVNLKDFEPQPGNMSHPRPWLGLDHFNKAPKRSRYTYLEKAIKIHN

Consider 3 molecules from paper PMC9747586.

For assay [1], the target named is T1, IFNLR1-BioID2 (BioID2 biotin ligase conjugated to the carboxyl-terminus of IFNLR1) (UniProt Q8IU57).
T1 sequence: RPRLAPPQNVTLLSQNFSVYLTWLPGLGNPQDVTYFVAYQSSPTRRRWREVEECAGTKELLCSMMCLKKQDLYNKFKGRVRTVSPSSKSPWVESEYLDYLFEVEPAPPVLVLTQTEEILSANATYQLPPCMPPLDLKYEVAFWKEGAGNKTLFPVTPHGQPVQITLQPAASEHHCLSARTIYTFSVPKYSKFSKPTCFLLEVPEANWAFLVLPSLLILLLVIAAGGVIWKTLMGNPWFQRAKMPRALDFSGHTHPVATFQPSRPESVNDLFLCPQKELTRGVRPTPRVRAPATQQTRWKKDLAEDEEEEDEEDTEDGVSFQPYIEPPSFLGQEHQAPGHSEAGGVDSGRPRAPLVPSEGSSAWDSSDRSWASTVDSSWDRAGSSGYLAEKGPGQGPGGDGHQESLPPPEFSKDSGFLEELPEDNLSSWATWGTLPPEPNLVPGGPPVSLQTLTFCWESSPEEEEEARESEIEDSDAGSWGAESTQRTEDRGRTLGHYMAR
The assay is described as follows: proximity labelling; BioID2 fused to the C-terminus of IFNLR1, HEK-293T transiently transfected 48 h, biotin treatment (overnight in the text, 1 h in the legend and methods), streptavidin magnetic beads, mass spectrometry; controls BioID2 alone, IFNGR1-BioID2, SIRPA-BioID2.

The target of assay [2] is T2, IFNLR1-miniTurbo (biotin ligase miniTurbo conjugated to the carboxyl-terminus of IFNLR1) (UniProt Q8IU57).
T2 sequence: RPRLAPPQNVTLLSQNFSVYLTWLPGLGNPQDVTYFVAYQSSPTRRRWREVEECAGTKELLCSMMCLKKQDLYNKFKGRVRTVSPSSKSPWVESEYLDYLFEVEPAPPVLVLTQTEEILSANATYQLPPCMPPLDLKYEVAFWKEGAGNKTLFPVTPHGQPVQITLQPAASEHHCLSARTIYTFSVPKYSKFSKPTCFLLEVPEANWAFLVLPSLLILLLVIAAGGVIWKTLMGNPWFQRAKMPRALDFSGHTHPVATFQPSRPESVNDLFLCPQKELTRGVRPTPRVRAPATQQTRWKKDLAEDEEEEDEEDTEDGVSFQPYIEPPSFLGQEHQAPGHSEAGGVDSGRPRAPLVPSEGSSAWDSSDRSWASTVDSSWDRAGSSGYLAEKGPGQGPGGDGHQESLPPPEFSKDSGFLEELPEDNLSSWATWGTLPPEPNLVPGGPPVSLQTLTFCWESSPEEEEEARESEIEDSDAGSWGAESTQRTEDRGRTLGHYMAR
As to the kind of experiment: proximity labelling; miniTurbo fused to the C-terminus of IFNLR1, transiently transfected cells, biotin 1 h before harvest, streptavidin magnetic beads, mass spectrometry; compared to miniTurbo alone.

Take TRIM25 (from UniProt Q14258 1-630): the binding result in assay [1] is “binds”.
Regarding USP7 (from UniProt Q93009 1-1102), the binding result in assay [1] is “binds”.

B1: FBXO45 (endogenous, found in the proximity labelling screens) (protein, UniProt P0C2W1 1-286)
chain: MAAPAPGAGAASGGAGCSGGGAGAGAGSGSGAAGAGGRLPSRVLELVFSYLELSELRSCALVCKHWYRCLHGDENSEVWRSLCARSLAEEALRTDILCNLPSYKAKIRAFQHAFSTNDCSRNVYIKKNGFTLHRNPIAQSTDGARTKIGFSEGRHAWEVWWEGPLGTVAVIGIATKRAPMQCQGYVALLGSDDQSWGWNLVDNNLLHNGEVNGSFPQCNNAPKYQIGERIRVILDMEDKTLAFERGYEFLGVAFRGLPKVCLYPAVSAVYGNTEVTLVYLGKPLDG
Regarding B1, the binding result in assay [1] and in assay [2] was “binds” in each case.
